From doi:10.1101/2024.07.26.605287

Target: T1, LGG-2/LC3 used for the interactome analysis (affinity purification) (C. elegans) (UniProt Q23536)
T1 sequence: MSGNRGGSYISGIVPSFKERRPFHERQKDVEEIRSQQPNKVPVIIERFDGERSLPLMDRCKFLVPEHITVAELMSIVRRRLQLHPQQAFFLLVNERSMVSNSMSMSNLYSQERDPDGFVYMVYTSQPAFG
Test: affinity purification with mass spectrometry

“RET-1 (reticulon protein), endogenous in worms (C. elegans (endogenous in worms))” was tested, and the binding was “no binding”.

Results are given in words; binding and its absence hold for the method and conditions named. Binding seen in cells or lysates may run through a third protein. A yes stands for co-enrichment or nearness to the bait. Other partners may have been found. No binding means not detected with the bait.
